According to PubChem BioAssay AID1508600 (Functional Genomics Laboratory (NCATS/FGL), 2020):
Among all 53,000 sequences or so, about 3,700 (7%) were called active.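 Rule for the calls: active = gene knockdowns whose robust z-score for IL-1 alpha signal is at least 2 or at most -2, so actives lie on both sides; inactive = the rest.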 The list shows a part of the results.

Assay: Components of the Cytosolic LPS Sensing Pathway: Gene Identification via Genome-wide siRNA Screen;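 note: robust z of the log signal after scaling to non-targeting control siRNA wells of the plate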
Conditions: RAW264.7 macrophages, IL-1a HTRF, actives lie on both sides, screened at 100 nM (by protocol), cells primed 5 h with Pam3CSK4 first
Outline: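 Cells (RAW264.7, 1×10^4 per well) were transfected with siRNA at 100 nM and cultured 48h at 37 degrees C. Pam3CSK4 was added for 5 hours; LipidA transfection followed for 24 hour. IL-1a was then measured by HTRF.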

Sequence | z-score
GCGAGAGCUAAAGUAAAAUTT against Egln1 | inactive: -0.671
CCUAAAAGCAGGCCAAAAUTT against Dhx29 | inactive: -1.26
GGCUGAAGGAGCAAUCAAATT against L3mbtl3 | inactive: 1.85
GGAUAUGUUGCUCACAUAATT against Abca13 | inactive: -0.414
GGGAACUGAAUUUUUCAGUTT against Ank3 | inactive: 1.43
GGAGCUAGAUAGGAAAAAATT against Vill | inactive: -1.44
GGCUAUAGGGAUGAUCAUATT against Cysltr1 | inactive: -0.93
UGGUAAGUAUUCAUGAAUCTT against Vmn1r219 | inactive: -0.366
GCAGCUAAGCACUGGAAAATT against Coq4 | inactive: 0.318
GCUCUAAGGACCAUAUACCTT against Ppm1d | inactive: 0.257
CGUAUUCCAUGAAUUCUGUTT against Rnf121 | inactive: 0.266
GGUACAAGAGAUUUGAAAATT against Wdpcp | inactive: 0.717
GGCAGUAUGCUCCCAGAAUTT against Fndc4 | inactive: 1.88
GGCAGAAUGGCUAUCUAGATT against Ufl1 | inactive: -0.423
GGCAUCACAGAAGGUUUAUTT against Rock2 | active: 4.17
GGCUCCUGUAAUGCUAACUTT against Zfp715 | inactive: -0.191
GGACUUUCGUGAUUGUAGATT against Prkdc | inactive: -0.647
GGUAUUUCAGAUAACCUGGTT against Bbs12 | active: 2.9
GGACAGGUAAAAAUUUAGGTT against Npsr1 | inactive: 0.54
GGAACCUGUCCUAUAUAGGTT against Zfp799 | inactive: 0.668
GGGUUGAACCUAUGUCAUCTT against Zfp764 | inactive: -0.45
GGAGCAAAAGAAGAAGAACTT against Mtdh | inactive: -0.886
GGUUCUGGCUCUUCUCUGUTT against Mogat2 | inactive: -1.42

Rewritten tab-delimited: entries from further up
Sequence	z-score
GCGAGAGCUAAAGUAAAAUTT against Egln1	inactive: -0.671
CCUAAAAGCAGGCCAAAAUTT against Dhx29	inactive: -1.26
GGCUGAAGGAGCAAUCAAATT against L3mbtl3	inactive: 1.85
GGAUAUGUUGCUCACAUAATT against Abca13	inactive: -0.414
GGGAACUGAAUUUUUCAGUTT against Ank3	inactive: 1.43
GGAGCUAGAUAGGAAAAAATT against Vill	inactive: -1.44
UGGUAAGUAUUCAUGAAUCTT against Vmn1r219	inactive: -0.366
GCAGCUAAGCACUGGAAAATT against Coq4	inactive: 0.318
GGCAGUAUGCUCCCAGAAUTT against Fndc4	inactive: 1.88
GGCAGAAUGGCUAUCUAGATT against Ufl1	inactive: -0.423
GGCAUCACAGAAGGUUUAUTT against Rock2	active: 4.17
GGCUCCUGUAAUGCUAACUTT against Zfp715	inactive: -0.191
GGACUUUCGUGAUUGUAGATT against Prkdc	inactive: -0.647
GGACAGGUAAAAAUUUAGGTT against Npsr1	inactive: 0.54
GGAACCUGUCCUAUAUAGGTT against Zfp799	inactive: 0.668
GGGUUGAACCUAUGUCAUCTT against Zfp764	inactive: -0.45

Additional results follow:

Sequence | z-score
GGGUGAAACCCAUAAAAAUTT against Zfp974 | inactive: -1.27
GGAGACAGCUAAGAAACUGTT against Hsd11b2 | inactive: -1.02
GGAGAAGAGAAAAAAGGAUTT against Pla1a | inactive: 0.0583
GGGUAGAAGUUGAUGUCAUTT against Tmem79 | inactive: -0.342
GGUCGGAAGCUGGUCUUUUTT against Pkdcc | inactive: 0.707
CGGGUCACAAGGCUUCAAATT against Szrd1 | inactive: 0.576
CCAAUCAAUUCUCAGCGACTT against Sufu | inactive: 0.161
GCAAGUACAACCAUUGGUUTT against Bco1 | inactive: 0.555
GGCCAAGAUCAUCUUUGUGTT against Ak1 | inactive: -0.714
GGAACACAUCAACAUUCACTT against Cttn | inactive: 0.364
GGAAGUGAAGAUGAUGAAUTT against Cpsf3 | inactive: -0.831
GGAGCUGCUAUAGAAGUACTT against Ankrd23 | inactive: 0.41
GCUGUUAUUCAAGGAAUUCTT against Lyrm7 | inactive: 0.537
GCAAGAUCCAGAACACUCATT against Adora1 | inactive: -0.781
CCAGAUGCAGUCACAAGUCTT against Klf4 | inactive: 0.843
GGGAAAAAGAACAAGAUCATT against Cep57l1 | inactive: -0.799
GCUAAUUUAUCCAAAGCCCTT against Dcun1d3 | inactive: 0.213
GGAAGUCCUGGACAUUCAGTT against Nfkbie | active: 5.66
GGUGUCUGCCUUACCAUAUTT against Dyrk1a | inactive: 0.581
GAAAGAGAGUAAAGAGCCGTT against Ly6i | inactive: -1.24
GCCAUACGAUCUGCAUUUCTT against Zbtb38 | inactive: -1.85
GGACAUUUUUGACCACAUATT against Nat1 | inactive: 0.19
GGCAGCACAAGAAAAAGAATT against Arid5a | inactive: -0.723

Sequence | z-score
GGCUUUCCGCGCUAUUGAUTT against Pcmtd2 | inactive: -0.027
GCAAUGUCGCCAAACGUAATT against Ikzf1 | inactive: 0.457
CGUGCCUUACAAUUAUUCUTT against Chodl | inactive: 0.379
GGAGGUGGGUUUAUUAUACTT against Rab3b | inactive: 0.151
GCUGCGUGAACUCAACAUCTT against Rps7 | inactive: 0.484
CCGUAUCAUAACUAUCGCGTT against Zc3h18 | inactive: -0.451
GGUUAUGUUUUGUCACUCUTT against Slc38a10 | inactive: -0.594
GGGAGACUGUGAAGCUUUATT against Elk4 | active: 3.22
CGUACUCCAACAACACUUUTT against Pdzd8 | inactive: -0.503
GGGCUUUGUGGAUGCGAUUTT against Exoc6 | inactive: 0.549
GGCUUGAAUCACCAACCAGTT against Sgcz | inactive: 0.224
CCAGCAUUCACCUGACAAATT against Kif24 | inactive: 0.348
GGAAGAAAAAUUGAAACACTT against Palmd | inactive: -0.801
GGAAGGUACAGGAAUCUCUTT against Arl6 | inactive: 1.1
CGUUUGCUGGGUAUCAAUATT against Miox | inactive: 0.0725
CCCAUGGCAAGUCCACACUTT against Phf2 | inactive: 0.309
GGAAGACGUGAGAACAGCATT against Zfp704 | inactive: -0.224
GGUGUGAGGAUCCUAGAGUTT against Ift22 | inactive: -0.956
GCUCUGUGAGCGAAAGUUCTT against Synpo2 | inactive: 1.72
GGACAAAAACAAACAUGAGTT against Vwa3a | inactive: -0.665
GCACAGCACUGCCUAAUGUTT against Vmn2r10 | inactive: -0.133
GGACUUGCUUUGGACACAUTT against Cd248 | inactive: 0.15
GGAAAUGAGUCUCAACCAGTT against Larp4b | inactive: 1.2
